The results in this text go back to PMC9249204.

Sequences of proteins named here, by UniProt entry; tags and fusion partners are left off.
UniProt Q96PE2: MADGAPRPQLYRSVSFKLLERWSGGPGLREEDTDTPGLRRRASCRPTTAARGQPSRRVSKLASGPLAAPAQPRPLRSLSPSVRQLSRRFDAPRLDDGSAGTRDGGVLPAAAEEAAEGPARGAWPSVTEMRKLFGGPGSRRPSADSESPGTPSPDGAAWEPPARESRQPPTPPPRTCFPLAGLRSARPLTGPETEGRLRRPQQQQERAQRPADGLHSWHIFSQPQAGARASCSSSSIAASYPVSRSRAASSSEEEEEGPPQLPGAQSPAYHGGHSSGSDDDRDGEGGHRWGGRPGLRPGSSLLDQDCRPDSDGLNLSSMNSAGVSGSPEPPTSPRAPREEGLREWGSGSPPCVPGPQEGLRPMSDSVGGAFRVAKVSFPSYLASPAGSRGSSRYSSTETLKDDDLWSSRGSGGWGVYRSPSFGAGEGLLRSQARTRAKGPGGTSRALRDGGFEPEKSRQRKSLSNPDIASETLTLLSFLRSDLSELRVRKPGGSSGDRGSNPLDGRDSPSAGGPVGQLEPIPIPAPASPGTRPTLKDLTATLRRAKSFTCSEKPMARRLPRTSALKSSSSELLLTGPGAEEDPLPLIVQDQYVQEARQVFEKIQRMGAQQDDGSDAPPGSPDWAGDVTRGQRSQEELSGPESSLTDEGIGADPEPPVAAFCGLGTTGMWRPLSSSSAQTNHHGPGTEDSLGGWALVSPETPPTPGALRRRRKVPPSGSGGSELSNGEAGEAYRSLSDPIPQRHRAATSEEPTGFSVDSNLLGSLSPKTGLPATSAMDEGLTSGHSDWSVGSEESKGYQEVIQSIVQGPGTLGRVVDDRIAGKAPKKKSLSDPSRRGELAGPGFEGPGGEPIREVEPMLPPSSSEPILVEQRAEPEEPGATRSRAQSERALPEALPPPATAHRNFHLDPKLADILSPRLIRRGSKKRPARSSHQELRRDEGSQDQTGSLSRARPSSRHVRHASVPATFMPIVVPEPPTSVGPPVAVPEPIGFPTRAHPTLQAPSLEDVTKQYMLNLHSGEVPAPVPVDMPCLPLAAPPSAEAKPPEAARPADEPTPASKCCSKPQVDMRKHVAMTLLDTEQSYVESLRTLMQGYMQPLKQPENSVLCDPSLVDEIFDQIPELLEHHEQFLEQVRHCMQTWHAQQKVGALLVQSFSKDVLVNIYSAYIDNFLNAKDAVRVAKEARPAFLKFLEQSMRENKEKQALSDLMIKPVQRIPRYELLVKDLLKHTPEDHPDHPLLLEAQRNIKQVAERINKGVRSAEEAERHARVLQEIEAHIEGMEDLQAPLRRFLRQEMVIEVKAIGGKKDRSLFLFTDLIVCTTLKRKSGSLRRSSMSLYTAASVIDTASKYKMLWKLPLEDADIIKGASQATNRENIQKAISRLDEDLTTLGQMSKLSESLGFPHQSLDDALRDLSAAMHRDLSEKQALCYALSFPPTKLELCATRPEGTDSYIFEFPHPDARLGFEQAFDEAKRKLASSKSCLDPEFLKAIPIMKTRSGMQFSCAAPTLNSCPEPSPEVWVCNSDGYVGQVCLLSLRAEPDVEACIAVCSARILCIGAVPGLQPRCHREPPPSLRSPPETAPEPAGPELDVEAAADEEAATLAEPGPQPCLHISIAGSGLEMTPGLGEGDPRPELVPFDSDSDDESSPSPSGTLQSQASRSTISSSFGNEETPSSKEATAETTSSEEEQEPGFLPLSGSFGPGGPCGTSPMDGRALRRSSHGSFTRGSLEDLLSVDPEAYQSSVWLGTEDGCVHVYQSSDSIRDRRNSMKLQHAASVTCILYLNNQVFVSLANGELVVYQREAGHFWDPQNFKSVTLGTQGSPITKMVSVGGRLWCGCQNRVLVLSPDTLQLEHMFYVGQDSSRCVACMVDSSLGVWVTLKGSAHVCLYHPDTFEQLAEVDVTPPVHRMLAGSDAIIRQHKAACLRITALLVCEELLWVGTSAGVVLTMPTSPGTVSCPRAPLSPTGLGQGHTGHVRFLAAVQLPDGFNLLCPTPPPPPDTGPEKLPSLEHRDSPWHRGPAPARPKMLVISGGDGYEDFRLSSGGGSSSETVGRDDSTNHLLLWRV
UniProt Q14980: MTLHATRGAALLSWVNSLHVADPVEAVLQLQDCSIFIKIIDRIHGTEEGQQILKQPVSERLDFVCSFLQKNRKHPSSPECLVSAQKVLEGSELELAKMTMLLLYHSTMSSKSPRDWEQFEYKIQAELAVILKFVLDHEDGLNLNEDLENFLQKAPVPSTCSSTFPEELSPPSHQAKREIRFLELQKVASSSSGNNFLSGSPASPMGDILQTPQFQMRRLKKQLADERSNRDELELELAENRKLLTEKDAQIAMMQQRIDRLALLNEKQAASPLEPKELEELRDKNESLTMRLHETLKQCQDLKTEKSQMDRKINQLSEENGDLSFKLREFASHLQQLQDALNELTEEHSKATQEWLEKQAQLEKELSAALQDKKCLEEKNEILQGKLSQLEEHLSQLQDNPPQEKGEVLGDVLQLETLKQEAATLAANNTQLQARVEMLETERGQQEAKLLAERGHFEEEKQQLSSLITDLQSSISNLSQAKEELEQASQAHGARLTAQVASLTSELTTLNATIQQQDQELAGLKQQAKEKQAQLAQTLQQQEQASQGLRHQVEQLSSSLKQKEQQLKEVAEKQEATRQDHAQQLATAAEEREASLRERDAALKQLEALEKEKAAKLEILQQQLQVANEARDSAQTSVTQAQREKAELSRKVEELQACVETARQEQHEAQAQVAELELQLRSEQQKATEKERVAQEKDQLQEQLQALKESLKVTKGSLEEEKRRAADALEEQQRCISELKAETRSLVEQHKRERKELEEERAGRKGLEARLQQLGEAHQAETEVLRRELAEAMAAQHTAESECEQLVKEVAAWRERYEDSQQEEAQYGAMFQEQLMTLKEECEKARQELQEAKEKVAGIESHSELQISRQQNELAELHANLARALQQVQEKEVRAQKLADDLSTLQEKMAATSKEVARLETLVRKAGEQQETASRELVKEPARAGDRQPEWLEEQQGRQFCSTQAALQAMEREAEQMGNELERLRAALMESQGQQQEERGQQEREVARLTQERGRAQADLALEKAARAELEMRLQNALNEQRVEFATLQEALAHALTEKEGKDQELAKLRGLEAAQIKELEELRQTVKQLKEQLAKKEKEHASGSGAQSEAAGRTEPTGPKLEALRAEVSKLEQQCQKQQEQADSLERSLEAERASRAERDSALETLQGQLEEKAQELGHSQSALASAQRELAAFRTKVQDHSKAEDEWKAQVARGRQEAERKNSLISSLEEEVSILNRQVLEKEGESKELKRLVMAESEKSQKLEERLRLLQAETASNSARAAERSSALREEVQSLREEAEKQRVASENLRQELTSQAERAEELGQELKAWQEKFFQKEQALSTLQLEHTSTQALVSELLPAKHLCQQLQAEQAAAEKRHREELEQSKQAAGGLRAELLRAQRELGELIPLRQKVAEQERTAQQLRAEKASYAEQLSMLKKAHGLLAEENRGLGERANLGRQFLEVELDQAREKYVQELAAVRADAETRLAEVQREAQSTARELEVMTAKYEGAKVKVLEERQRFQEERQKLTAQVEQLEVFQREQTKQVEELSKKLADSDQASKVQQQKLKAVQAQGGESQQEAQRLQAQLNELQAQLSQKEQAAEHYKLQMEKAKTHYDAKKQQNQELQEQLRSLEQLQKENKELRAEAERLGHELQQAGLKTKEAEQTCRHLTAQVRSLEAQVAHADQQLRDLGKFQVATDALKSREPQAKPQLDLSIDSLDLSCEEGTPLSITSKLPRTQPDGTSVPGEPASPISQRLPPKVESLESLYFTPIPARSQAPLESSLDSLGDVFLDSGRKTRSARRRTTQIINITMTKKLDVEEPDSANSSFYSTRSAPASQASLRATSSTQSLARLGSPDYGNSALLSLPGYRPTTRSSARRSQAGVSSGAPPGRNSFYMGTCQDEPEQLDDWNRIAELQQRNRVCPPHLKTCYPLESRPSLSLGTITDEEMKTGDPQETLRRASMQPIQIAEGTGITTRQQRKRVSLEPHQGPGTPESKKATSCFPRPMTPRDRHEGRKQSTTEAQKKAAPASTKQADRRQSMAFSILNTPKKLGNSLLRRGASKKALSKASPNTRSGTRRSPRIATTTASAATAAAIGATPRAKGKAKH

The target in the assay is GFP-tagged TEM4 (ARHGEF17, Rho guanine nucleotide exchange factor 17) (human) (UniProt Q96PE2). Description: co-IP; anti-GFP immunoprecipitation from NP-40 whole cell lysates of HEK-293T cells transiently expressing GFP or GFP-TEM4, treated with 15 nM Taxol to synchronise in mitosis; immunoblot for NuMA; duplicate immunoprecipitants. In general terms: In western blotting, separated proteins are transferred to a membrane and probed.

Results are given in words; binding and its absence hold for the method and conditions named. Binding seen in cells or lysates may run through a third protein.

Consider “Nuclear Mitotic Apparatus Protein 1 (NuMA) (from UniProt Q14980 1-2115)”, for which the binding result is listed as “no binding”.
